# Data as given in the supplement of paper PMC11006884.
# Chains of the proteins cited; added tags and fusions are not shown. Lines headed by an entry give the natural chain unless they say otherwise; changes in a name come on top.
# UniProt Q9BRT9, whole entry: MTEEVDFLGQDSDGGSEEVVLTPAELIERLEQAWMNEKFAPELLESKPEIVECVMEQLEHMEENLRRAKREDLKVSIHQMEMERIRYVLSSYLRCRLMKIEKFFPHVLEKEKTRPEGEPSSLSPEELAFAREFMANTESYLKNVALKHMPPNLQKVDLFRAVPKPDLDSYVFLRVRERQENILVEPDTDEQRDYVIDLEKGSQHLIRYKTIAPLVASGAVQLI
# UniProt Q9H0C8: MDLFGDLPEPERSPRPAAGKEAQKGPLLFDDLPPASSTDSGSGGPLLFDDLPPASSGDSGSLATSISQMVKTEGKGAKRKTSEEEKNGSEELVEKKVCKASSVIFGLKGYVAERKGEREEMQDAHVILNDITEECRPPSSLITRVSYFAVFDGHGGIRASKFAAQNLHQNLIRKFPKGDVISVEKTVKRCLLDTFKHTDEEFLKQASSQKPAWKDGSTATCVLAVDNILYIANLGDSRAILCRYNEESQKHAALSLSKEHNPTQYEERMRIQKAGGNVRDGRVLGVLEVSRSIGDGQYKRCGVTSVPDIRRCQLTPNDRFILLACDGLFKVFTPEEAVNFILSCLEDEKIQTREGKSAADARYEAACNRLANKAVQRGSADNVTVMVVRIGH
# UniProt Q9BUQ8: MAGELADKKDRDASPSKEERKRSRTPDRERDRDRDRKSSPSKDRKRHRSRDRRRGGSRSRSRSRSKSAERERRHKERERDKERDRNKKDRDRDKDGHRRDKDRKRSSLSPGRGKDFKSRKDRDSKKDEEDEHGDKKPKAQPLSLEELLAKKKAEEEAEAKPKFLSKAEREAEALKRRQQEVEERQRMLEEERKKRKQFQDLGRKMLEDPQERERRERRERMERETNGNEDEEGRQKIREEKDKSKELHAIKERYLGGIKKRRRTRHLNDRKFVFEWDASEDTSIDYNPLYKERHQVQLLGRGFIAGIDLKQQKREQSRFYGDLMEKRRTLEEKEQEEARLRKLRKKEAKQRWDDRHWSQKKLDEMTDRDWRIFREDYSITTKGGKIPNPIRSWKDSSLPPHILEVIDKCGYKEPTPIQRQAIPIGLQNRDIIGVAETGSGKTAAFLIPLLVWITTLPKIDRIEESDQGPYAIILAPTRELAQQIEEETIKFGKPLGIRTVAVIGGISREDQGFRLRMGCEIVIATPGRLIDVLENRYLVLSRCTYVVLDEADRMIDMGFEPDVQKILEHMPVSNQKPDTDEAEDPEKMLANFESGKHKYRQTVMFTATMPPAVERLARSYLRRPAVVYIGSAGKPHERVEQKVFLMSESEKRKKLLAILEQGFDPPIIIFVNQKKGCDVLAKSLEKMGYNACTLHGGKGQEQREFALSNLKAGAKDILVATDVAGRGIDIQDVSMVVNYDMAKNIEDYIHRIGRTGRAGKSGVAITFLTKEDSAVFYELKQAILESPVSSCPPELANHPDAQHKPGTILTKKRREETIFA
# UniProt Q9C0E2: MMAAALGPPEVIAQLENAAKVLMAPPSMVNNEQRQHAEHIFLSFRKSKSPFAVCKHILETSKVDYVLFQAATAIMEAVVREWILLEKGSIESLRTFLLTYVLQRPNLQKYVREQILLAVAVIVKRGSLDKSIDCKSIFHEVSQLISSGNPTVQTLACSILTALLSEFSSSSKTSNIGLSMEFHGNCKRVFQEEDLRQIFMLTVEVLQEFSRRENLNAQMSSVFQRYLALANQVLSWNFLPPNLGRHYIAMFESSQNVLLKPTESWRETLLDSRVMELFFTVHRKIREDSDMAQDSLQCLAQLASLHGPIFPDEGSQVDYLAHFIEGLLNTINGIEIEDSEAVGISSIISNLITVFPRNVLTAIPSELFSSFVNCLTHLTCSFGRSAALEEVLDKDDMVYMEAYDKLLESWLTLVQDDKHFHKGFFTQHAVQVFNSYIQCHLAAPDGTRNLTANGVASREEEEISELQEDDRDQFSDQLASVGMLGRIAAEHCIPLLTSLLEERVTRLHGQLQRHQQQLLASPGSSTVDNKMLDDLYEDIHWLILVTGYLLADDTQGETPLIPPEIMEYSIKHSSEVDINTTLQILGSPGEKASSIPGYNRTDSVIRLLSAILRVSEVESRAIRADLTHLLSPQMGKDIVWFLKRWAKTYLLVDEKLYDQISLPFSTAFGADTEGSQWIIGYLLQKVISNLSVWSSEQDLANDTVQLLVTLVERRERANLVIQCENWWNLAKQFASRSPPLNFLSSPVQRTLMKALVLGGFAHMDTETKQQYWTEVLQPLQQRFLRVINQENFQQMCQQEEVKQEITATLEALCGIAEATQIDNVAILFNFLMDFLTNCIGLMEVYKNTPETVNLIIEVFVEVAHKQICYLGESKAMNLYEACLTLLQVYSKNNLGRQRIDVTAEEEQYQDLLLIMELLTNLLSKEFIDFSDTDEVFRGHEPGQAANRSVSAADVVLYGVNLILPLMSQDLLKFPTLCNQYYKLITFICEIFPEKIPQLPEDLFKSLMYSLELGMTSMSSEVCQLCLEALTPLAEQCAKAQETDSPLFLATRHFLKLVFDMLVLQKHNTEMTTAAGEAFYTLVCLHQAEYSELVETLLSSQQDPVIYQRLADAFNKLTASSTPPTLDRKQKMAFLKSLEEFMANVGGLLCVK
# UniProt Q9BW83: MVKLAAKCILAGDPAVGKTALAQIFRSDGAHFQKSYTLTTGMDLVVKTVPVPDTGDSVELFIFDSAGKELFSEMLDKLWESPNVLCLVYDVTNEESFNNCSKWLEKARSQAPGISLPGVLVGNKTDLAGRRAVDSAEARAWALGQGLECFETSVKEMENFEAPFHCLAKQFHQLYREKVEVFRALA
# UniProt Q9H0D6: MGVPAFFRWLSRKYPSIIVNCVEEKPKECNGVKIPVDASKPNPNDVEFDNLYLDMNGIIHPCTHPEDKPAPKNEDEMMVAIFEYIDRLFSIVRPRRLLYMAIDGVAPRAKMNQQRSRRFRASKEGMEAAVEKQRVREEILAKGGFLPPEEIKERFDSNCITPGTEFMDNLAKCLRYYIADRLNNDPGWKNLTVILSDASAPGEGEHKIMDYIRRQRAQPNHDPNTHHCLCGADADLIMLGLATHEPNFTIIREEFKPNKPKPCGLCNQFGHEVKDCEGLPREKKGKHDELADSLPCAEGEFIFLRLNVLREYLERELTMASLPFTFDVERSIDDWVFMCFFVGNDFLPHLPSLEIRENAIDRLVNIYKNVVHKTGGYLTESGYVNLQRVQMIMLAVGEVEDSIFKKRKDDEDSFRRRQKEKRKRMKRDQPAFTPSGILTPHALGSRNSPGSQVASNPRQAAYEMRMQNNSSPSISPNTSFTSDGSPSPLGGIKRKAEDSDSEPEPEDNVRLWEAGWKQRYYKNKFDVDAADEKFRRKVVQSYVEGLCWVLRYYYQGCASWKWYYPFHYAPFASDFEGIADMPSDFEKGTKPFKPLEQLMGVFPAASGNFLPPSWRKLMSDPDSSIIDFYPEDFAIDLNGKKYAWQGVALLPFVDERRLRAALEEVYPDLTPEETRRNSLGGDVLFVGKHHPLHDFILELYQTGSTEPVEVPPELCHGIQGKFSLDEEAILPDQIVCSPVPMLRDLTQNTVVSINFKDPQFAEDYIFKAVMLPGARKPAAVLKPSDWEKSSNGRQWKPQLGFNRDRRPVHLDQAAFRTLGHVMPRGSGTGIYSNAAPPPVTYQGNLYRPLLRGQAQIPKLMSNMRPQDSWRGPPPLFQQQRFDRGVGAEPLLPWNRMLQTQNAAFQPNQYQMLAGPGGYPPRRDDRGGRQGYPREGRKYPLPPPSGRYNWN
# UniProt Q9BVC5: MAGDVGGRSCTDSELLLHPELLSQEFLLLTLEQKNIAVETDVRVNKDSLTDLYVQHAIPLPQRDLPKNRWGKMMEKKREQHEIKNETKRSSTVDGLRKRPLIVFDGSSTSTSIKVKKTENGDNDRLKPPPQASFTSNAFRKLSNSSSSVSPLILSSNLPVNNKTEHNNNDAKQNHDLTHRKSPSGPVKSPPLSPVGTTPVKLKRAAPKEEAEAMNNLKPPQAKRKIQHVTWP
# UniProt Q9C0C2: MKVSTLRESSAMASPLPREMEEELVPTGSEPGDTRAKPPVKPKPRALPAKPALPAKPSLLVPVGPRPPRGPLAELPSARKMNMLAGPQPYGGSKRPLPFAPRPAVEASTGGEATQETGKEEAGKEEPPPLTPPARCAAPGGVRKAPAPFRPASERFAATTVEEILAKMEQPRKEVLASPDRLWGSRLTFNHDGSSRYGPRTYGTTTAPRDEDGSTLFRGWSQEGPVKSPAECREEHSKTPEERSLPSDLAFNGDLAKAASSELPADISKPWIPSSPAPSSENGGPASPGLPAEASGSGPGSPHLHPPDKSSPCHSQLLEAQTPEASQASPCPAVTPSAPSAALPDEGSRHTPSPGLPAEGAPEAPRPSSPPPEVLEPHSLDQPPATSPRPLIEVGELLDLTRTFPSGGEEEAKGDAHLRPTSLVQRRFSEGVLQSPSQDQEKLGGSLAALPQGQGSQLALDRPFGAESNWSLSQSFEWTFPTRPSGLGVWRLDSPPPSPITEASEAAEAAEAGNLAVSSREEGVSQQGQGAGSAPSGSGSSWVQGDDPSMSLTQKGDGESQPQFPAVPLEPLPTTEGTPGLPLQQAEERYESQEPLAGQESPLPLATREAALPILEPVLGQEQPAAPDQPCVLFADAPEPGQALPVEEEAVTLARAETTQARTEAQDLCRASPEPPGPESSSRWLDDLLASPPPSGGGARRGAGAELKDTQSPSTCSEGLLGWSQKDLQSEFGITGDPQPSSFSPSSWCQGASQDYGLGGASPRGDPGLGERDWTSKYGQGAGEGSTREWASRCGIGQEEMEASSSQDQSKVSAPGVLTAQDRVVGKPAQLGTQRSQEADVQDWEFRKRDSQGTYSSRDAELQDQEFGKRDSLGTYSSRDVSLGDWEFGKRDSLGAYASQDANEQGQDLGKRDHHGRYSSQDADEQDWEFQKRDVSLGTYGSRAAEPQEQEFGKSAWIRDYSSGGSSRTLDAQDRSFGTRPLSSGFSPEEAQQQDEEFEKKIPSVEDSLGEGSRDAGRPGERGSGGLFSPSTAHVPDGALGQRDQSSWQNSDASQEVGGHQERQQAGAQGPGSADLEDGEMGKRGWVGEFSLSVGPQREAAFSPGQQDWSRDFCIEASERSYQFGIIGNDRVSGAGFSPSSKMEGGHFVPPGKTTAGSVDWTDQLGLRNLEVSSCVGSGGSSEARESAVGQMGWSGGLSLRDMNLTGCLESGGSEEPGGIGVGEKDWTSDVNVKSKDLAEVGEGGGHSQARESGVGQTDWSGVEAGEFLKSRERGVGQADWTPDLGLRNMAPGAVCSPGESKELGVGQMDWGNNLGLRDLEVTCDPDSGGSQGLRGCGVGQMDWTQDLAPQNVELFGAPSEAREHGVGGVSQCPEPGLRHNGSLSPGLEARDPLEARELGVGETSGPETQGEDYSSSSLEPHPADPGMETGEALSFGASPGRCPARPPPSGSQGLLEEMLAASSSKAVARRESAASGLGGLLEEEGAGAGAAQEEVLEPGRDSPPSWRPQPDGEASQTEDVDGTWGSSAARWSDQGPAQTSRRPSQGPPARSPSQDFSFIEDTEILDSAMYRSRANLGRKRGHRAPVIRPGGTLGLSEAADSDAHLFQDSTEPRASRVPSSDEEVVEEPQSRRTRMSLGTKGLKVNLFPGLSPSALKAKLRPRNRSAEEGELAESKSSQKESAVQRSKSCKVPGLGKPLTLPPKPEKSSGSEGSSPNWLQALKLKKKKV
# UniProt Q9BUJ2: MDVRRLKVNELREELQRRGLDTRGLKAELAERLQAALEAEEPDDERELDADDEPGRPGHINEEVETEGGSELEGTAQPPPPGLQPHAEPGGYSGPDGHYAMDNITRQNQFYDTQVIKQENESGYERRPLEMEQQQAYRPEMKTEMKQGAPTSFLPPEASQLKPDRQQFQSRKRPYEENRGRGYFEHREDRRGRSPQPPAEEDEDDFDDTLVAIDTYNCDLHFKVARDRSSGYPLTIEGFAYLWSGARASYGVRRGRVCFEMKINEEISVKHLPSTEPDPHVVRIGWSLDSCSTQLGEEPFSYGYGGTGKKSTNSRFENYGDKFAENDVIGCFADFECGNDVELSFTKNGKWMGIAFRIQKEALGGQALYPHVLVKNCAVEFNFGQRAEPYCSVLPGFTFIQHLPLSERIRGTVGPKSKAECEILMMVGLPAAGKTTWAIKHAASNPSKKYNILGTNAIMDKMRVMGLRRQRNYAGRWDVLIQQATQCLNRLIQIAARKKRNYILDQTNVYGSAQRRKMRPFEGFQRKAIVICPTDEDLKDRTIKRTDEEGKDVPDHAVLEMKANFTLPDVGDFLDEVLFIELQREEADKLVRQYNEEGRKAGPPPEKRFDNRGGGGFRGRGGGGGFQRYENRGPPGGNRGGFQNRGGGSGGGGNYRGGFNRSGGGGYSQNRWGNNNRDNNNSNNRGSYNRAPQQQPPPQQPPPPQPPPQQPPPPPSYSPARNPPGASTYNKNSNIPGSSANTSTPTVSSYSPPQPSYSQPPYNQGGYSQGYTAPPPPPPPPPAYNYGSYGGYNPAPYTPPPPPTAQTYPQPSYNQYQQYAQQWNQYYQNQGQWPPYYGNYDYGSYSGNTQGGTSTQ
# This is a selection; strong and weak results do not stand in their true shares.
# Compound: COC(=O)C#Cc1ccccc1 [methyl 3-phenylpropiolate]
# Assay: log2 ratio of iodoacetamide-alkyne labeling of the cysteine site, DMSO over compound (competition); higher = stronger covalent engagement of the cysteine by the compound, active = 1 or more
# Settings: 500 µM; treatment time 1 h; system: HEK293T cell lysate
# Summary of the method: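 HEK293T lysate (2 mg/mL) was treated with DMSO or electrophile (500 µM, 1 h, ambient temperature), then iodoacetamide alkyne (1 h), clicked to sCIP-TMT reagents, pooled, trypsin-digested overnight at 37 °C, streptavidin-enriched and acid-eluted. Peptides were run on Orbitrap Eclipse LC-MS/MS with FAIMS and quantified in FragPipe. The log2 competition ratio per cysteine is mean control-channel over mean compound-channel reporter intensity. Duplicate channels and three replicates were used, and cysteines quantified in only one replicate were excluded.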
row,Target,log2 ratio of iodoacetamide-alkyne labeling
1,NSD3 C173 (UniProt Q9BZ95),inactive: 0.233
2,GINS4 C53 (UniProt Q9BRT9),inactive: -0.0159
3,ILKAP C135 (UniProt Q9H0C8),inactive: -0.165
4,DDX23 C692 (UniProt Q9BUQ8),inactive: 0.105
5,RNF126 C32 (UniProt Q9BV68),inactive: 0.0504
6,UniProt Q9BTE3_C287,inactive: 0.647
7,XPO4 C492 (UniProt Q9C0E2),inactive: 0.109
8,PRKD2 C861 (UniProt Q9BZL6),inactive: 0.258
9,UniProt Q9BW83_C149,inactive: -0.293
10,XRN2 C736 (UniProt Q9H0D6),inactive: 0.0826
11,POLDIP3 C303 (UniProt Q9BY77),inactive: -0.174
12,SETD2 C900 (UniProt Q9BYW2),inactive: 0.402
13,UBE2O C400 (UniProt Q9C0C9),inactive: -0.416
14,C2orf49 C10 (UniProt Q9BVC5),inactive: 0.299
15,TNKS1BP1 C136 (UniProt Q9C0C2),inactive: 0.642
16,UBXN6 C125 (UniProt Q9BZV1),inactive: 0.728
17,KIFC1 C144 (UniProt Q9BW19),inactive: 0.388
18,HDAC8 C153 (UniProt Q9BY41),inactive: 0.132
19,LZTS2 C376 (UniProt Q9BRK4),inactive: 0.634

row,Target,log2 ratio of iodoacetamide-alkyne labeling
1,ACAT2 C158 (UniProt Q9BWD1),inactive: -0.0336
2,ASPSCR1 C109 (UniProt Q9BZE9),inactive: 0.438
3,ADI1 C70 (UniProt Q9BV57),inactive: 0.0326
4,NUF2 C377 (UniProt Q9BZD4),inactive: 0.325
5,TNKS1BP1 C1175 (UniProt Q9C0C2),inactive: 0.568
6,ILKAP C190 (UniProt Q9H0C8),inactive: -0.0393
7,UTP14A C522 (UniProt Q9BVJ6),inactive: 0.365
8,HNRNPUL1 C291 (UniProt Q9BUJ2),inactive: 0.483
9,RPAP1 C195 (UniProt Q9BWH6),inactive: 0.248
10,UniProt Q9BW83_C166,inactive: 0.297
11,MYBBP1A C968 (UniProt Q9BQG0),inactive: 0.274
12,TARS2 C185 (UniProt Q9BW92),inactive: 0.0276
13,SLC4A1AP C730 (UniProt Q9BWU0),active: 1.48
14,UniProt Q9BXP5_C490,inactive: 0.11
15,HDHD3 C109 (UniProt Q9BSH5),inactive: 0.973
16,TNKS1BP1 C1324 (UniProt Q9C0C2),active: 1.18
17,ADPGK C40 (UniProt Q9BRR6),inactive: 0.1
18,ACTR6 C339 (UniProt Q9GZN1),inactive: 0.248

# In a second layout: entries from further up.
row | Target | log2 ratio of iodoacetamide-alkyne labeling
1 | ACAT2 C158 (UniProt Q9BWD1) | inactive: -0.0336
2 | ASPSCR1 C109 (UniProt Q9BZE9) | inactive: 0.438
3 | ADI1 C70 (UniProt Q9BV57) | inactive: 0.0326
5 | TNKS1BP1 C1175 (UniProt Q9C0C2) | inactive: 0.568
7 | UTP14A C522 (UniProt Q9BVJ6) | inactive: 0.365
8 | HNRNPUL1 C291 (UniProt Q9BUJ2) | inactive: 0.483
9 | RPAP1 C195 (UniProt Q9BWH6) | inactive: 0.248
10 | UniProt Q9BW83_C166 | inactive: 0.297
15 | HDHD3 C109 (UniProt Q9BSH5) | inactive: 0.973
16 | TNKS1BP1 C1324 (UniProt Q9C0C2) | active: 1.18
17 | ADPGK C40 (UniProt Q9BRR6) | inactive: 0.1
